The results in this text go back to patent EP0980526B1, “INHIBITORS OF NUCLEAR PROTEIN/NUCLEAR RECEPTOR INTERACTION” (IMPERIAL CANCER RESEARCH TECHNOLOGY LIMITED, priority 1997, dated 1998).

The chains behind the UniProt entries cited, without tags or fusion partners. Where a name states a change or a piece, a line headed by the entry shows the natural chain unless it says otherwise. A line that says so, or that is headed by a name, gives the form on record, which may keep a tag or linker. Residues count along the entry.
UniProt P45481, residues 2058-2163: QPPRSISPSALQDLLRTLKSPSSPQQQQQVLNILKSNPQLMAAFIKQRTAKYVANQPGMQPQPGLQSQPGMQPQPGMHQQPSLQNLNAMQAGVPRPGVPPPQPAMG
UniProt Q15788: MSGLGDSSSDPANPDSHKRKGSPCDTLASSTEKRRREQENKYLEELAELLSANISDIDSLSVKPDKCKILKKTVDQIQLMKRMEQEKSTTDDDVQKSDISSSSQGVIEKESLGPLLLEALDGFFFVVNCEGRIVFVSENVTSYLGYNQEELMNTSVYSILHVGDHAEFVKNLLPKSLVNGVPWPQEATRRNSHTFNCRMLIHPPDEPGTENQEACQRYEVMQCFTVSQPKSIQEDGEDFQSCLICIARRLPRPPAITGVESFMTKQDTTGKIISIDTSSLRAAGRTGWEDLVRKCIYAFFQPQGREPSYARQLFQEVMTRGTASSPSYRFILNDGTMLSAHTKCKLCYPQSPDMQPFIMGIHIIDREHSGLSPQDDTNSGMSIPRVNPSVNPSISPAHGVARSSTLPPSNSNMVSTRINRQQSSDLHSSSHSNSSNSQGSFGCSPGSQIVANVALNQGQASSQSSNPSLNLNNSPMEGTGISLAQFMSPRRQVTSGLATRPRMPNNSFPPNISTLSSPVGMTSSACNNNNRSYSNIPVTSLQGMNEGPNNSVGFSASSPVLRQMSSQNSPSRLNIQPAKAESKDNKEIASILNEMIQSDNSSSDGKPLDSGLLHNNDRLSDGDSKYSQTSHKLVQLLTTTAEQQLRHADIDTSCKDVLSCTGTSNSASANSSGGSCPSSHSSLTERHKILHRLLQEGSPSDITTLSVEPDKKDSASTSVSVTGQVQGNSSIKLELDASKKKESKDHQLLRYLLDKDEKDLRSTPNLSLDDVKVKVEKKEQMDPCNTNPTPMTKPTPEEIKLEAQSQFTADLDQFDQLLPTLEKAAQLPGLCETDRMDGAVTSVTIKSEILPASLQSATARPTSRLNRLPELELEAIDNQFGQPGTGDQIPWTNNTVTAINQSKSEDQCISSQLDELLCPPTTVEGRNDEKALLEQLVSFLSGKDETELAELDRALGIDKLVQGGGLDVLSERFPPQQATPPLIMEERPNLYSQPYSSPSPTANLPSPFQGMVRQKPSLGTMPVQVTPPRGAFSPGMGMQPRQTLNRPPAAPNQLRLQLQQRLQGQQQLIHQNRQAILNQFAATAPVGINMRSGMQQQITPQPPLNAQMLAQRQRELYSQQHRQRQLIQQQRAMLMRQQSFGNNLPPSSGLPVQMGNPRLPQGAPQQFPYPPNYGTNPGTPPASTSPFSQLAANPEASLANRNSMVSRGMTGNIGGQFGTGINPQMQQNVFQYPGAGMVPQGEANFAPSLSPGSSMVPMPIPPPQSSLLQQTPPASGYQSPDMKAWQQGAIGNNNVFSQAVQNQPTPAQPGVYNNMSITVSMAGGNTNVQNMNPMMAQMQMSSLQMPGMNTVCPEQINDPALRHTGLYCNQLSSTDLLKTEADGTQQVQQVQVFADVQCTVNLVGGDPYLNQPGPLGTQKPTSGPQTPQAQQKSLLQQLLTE
SRC1a-M1234 (Q15788, form named): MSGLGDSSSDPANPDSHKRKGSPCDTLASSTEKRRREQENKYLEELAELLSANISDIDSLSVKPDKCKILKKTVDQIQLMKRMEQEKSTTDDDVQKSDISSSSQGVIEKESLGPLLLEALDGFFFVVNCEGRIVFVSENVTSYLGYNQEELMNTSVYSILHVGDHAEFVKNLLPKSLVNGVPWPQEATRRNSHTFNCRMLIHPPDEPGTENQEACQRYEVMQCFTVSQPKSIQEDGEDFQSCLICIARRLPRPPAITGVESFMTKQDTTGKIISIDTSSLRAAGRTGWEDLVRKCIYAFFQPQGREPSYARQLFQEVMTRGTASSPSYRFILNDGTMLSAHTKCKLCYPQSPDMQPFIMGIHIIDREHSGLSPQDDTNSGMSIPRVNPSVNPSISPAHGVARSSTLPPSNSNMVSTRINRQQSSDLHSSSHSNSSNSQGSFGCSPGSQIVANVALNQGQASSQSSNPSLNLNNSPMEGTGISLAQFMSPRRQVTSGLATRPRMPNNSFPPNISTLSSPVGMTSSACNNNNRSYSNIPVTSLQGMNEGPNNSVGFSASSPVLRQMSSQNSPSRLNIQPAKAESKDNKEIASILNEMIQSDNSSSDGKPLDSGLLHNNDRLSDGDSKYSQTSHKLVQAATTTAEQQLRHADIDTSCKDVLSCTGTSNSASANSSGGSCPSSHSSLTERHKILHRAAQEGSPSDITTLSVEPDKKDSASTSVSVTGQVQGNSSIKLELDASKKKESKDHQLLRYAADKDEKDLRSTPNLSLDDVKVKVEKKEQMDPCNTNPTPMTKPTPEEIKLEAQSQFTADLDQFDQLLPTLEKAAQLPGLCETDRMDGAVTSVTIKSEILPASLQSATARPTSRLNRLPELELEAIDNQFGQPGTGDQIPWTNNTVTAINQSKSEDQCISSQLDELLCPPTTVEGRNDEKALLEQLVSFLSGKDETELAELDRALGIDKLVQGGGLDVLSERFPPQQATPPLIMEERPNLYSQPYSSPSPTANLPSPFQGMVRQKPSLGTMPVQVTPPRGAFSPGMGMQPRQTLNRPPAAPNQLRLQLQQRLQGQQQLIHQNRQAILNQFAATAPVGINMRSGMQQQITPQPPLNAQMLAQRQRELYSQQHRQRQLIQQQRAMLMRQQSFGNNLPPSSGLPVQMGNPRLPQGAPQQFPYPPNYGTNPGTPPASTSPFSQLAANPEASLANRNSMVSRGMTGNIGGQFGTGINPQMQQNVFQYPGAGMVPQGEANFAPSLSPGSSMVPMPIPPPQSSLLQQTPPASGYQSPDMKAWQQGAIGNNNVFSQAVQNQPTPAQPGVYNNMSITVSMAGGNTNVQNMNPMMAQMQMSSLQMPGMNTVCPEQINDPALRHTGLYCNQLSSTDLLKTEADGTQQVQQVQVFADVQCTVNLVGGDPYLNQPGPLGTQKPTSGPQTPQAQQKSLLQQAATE

This assay deals with GST-CBP (GST fused to the SRC1-binding domain of CBP) (mouse) (UniProt P45481). Nature of the assay: GST pulldown of [35S]-labelled in vitro translated protein.

Results are given in words; binding and its absence hold for the method and conditions named. Binding seen in cells or lysates may run through a third protein. Some binding calls cover weakened binding; strength is not graded here.

Consider “SRC1a-M1234 (from UniProt Q15788 1-1441)”, for which the binding entry is “binds”.

For the substance “wild type SRC1a (human, in vitro translated) (from UniProt Q15788 1-1441)”, the binding entry was “binds”.
